Results taken from publication PMC7422068.
These are yes or no findings as the source states them, for the method shown. In cells and extracts the contact can be indirect. Some entries that bind do so weakly or less than the wild type.

Protein sequences, listed by entry. Tags and fused reporters are not part of them.
UniProt Q91YI4: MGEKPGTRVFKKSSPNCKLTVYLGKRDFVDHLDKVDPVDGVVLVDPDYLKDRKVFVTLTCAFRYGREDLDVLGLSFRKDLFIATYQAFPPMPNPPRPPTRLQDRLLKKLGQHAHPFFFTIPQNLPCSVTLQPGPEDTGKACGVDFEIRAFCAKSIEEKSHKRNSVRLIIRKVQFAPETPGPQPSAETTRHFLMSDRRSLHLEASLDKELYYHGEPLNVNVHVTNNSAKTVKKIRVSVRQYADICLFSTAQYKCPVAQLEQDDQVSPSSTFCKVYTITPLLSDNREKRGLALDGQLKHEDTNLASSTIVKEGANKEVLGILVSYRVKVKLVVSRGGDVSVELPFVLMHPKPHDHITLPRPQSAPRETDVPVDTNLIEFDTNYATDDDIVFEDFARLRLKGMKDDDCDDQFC
UniProt Q9Z1E3: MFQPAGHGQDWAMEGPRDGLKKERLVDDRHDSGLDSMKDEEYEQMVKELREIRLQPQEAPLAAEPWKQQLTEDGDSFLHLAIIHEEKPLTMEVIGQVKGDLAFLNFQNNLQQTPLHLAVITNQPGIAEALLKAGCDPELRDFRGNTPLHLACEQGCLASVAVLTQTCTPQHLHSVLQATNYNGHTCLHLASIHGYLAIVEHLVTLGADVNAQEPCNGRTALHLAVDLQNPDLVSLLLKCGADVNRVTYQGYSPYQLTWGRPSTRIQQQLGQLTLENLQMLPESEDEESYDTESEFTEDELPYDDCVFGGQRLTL

Biological target: β-arrestin-2 (mouse (endogenous in SV-40 MES 13 glomerular mesangial cells)) (UniProt Q91YI4)
Experiment: co-IP; cell extracts of mouse GMCs; IP with anti-β-arrestin-2 antibody (normal mouse IgG as negative control), blot with anti-I-κBα antibody; endogenous proteins; cells also treated with 30 mM high glucose, 5 mM butyrate, siRNA-GPR43 or GPR43 overexpression

binding: binds
Substance: I-κBα (from UniProt Q9Z1E3 1-314)
